No constants are given. Whether binding was seen depends on the method and setting. In cells and extracts the contact can be indirect. A yes stands for co-enrichment or nearness to the bait. Other partners may have been found. Sequences can lack the tags named with a protein.
Molecular target: T1, FLAG-MST2 (bait of the AP-MS experiment) (UniProt Q13188)
T1 sequence: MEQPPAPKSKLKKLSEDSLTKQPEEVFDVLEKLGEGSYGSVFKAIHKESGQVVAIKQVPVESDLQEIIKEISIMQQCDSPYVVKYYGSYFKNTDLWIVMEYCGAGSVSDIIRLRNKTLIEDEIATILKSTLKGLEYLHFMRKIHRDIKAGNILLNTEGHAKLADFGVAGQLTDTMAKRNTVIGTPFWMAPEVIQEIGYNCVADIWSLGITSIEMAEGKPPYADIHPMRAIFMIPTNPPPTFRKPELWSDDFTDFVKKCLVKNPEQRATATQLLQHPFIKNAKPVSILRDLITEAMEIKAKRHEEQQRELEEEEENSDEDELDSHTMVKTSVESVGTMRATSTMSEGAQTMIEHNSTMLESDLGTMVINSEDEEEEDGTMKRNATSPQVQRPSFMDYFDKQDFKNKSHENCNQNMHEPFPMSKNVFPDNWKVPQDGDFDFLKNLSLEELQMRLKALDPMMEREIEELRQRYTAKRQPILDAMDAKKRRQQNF
Experiment: affinity purification with mass spectrometry; FLAG-MST2 AP-MS; interaction proteomic data set of the group, mined here

Chains of the proteins cited; added tags and fusions are not shown.
UniProt O75592: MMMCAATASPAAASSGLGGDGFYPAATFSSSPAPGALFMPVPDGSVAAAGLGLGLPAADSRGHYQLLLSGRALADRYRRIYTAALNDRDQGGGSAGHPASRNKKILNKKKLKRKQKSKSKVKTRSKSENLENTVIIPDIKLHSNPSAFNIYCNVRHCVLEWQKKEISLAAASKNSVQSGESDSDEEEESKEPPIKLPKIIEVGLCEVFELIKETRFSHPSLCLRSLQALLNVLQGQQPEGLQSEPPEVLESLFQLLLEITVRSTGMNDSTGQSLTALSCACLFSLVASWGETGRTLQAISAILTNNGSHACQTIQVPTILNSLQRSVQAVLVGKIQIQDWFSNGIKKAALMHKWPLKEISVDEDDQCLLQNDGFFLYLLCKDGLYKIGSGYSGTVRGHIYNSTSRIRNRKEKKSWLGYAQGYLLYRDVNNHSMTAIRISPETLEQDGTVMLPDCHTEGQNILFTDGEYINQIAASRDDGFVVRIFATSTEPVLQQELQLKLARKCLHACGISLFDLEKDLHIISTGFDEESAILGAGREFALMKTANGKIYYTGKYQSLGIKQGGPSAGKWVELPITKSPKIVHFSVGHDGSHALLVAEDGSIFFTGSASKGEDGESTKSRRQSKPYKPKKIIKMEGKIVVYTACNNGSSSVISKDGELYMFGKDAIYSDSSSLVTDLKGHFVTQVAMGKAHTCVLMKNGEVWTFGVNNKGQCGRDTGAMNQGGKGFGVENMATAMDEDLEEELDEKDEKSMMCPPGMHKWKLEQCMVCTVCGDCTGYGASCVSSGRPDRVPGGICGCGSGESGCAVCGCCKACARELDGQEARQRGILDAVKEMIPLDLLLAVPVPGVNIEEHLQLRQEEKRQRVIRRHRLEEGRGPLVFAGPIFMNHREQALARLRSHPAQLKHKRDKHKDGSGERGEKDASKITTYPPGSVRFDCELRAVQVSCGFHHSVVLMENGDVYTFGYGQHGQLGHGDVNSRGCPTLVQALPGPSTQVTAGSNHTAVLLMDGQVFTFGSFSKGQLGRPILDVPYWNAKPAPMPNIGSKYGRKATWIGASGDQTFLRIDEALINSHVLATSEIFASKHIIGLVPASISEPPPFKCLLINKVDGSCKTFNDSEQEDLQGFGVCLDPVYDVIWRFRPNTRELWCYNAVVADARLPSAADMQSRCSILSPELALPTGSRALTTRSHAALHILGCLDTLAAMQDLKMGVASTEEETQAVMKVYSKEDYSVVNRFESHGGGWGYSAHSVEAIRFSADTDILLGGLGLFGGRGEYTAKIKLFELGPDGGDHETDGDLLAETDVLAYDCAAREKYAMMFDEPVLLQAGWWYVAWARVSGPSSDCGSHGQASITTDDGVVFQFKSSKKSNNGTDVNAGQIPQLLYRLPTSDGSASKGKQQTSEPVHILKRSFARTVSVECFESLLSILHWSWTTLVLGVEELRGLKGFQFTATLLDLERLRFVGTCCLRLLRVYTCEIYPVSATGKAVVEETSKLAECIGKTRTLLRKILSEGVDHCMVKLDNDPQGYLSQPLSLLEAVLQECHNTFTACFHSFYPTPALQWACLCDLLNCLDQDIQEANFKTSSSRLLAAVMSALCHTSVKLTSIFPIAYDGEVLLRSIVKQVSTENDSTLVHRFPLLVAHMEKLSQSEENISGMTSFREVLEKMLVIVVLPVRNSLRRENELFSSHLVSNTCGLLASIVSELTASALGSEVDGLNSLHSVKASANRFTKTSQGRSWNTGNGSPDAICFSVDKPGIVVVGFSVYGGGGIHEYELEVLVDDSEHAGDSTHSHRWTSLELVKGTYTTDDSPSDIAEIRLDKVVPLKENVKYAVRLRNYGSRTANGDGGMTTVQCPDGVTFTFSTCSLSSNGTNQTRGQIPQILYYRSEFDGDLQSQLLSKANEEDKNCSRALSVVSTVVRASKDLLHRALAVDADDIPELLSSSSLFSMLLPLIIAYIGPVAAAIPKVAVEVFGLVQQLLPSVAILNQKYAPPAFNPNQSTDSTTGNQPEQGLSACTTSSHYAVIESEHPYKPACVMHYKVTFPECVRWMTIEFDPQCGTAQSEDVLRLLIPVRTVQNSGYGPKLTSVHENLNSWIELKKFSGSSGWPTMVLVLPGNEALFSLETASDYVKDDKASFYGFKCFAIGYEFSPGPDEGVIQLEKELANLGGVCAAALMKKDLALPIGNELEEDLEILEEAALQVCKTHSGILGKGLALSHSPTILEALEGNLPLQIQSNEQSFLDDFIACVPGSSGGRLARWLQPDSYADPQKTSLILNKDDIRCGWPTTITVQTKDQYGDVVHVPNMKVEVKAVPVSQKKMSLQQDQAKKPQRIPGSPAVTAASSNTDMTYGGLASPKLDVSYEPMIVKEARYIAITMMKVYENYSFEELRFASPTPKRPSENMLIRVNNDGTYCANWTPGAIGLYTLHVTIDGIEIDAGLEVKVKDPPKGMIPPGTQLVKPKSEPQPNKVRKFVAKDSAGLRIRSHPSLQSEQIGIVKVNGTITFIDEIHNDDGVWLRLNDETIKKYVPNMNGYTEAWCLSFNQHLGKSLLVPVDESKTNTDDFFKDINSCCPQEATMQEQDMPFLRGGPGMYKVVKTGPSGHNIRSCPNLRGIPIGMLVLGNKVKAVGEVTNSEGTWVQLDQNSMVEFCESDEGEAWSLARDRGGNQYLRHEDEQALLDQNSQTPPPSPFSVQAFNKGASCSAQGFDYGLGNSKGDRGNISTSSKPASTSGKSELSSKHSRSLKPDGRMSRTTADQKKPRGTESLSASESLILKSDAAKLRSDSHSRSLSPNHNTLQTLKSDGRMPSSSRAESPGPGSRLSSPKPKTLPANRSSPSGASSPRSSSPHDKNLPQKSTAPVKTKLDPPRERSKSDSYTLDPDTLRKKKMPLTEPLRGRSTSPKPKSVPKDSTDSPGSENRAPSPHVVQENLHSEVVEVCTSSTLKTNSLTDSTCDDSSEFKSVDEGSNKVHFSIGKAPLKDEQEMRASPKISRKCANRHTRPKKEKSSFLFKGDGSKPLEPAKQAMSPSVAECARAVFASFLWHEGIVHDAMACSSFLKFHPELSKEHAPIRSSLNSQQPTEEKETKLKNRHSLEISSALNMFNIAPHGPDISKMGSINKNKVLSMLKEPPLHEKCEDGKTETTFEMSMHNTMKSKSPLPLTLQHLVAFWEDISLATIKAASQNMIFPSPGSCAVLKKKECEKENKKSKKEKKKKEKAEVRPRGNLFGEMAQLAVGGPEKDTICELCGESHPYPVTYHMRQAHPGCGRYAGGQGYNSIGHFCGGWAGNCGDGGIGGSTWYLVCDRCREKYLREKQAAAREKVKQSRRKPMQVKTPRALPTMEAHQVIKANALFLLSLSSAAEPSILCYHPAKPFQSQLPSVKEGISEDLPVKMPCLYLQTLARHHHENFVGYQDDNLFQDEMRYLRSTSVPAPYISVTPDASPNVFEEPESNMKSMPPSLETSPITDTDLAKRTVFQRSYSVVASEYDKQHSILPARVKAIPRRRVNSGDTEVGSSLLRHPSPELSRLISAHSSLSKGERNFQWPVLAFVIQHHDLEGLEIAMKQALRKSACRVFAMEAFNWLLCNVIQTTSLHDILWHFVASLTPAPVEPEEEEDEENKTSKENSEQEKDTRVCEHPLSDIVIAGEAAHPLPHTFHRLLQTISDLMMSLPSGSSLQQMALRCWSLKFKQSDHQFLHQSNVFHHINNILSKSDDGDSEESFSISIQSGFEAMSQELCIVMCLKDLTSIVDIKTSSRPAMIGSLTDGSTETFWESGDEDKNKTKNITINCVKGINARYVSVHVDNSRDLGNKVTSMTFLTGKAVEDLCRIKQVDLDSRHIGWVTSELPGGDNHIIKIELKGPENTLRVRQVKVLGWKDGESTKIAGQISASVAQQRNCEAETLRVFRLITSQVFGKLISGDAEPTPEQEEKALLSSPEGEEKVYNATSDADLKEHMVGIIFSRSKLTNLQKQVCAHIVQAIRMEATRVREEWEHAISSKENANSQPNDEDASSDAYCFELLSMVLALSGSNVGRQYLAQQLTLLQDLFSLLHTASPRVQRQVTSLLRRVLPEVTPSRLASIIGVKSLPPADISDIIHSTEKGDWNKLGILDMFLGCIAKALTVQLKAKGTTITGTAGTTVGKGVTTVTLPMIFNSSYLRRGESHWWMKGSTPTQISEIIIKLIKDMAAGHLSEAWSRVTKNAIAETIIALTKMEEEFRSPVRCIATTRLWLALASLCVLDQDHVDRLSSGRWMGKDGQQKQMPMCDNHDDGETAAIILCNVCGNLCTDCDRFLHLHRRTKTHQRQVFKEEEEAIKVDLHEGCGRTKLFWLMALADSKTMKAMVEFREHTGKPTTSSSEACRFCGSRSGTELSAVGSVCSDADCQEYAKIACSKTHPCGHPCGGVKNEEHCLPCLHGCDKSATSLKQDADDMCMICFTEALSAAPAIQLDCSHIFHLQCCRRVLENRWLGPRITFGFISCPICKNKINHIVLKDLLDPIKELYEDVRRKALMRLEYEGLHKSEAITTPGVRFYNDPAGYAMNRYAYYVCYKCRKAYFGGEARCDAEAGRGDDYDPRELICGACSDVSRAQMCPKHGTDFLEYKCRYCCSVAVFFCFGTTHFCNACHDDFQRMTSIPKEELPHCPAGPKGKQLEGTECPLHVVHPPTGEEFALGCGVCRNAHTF

- binding: binds
Substance: MYCBP2 (prey of the AP-MS experiment) (from UniProt O75592 1-4678)

Source: paper PMC9434705
